One may read the IC50 as the concentration that inhibits the measured activity by half. Read a low IC50 as greater potency.

This note sets out measurements from EP3964206A1, “COMPOUNDS FOR THE TREATMENT OF COVID-19” (priority 2020, dated 2022).

This assay relates to SARS-CoV-2. Description: microbe, parasite or virus in culture. It counts as cell-based. As to conditions: Severe acute respiratory syndrome coronavirus 2, 120 h.

Counter-ions that a name gives are not always drawn.

Compound `CCN(CC)CCOc1ccc(C(=C(Cl)c2ccccc2)c2ccccc2)cc1` [Compound 82, 2-[4-(2-Chloro-1,2-diphenylvinyl)phenoxy]-N,N-diethylethanamine citrate] yielded an IC50 of 13.6 µM.

`CN(C)C(=O)C(CCN1CCC(O)(c2ccc(Cl)cc2)CC1)(c1ccccc1)c1ccccc1` [Compound 110, 4-[4-(4-Chlorophenyl)-4-hydroxypiperidin-1-yl]-N,N-dimethyl-2,2-diphenylbutyramide hydrochloride] yielded an IC50 of 17.2 µM.
